According to PubChem BioAssay AID687031 (Broad Institute, 2013):
About 50 (4%) of roughly 1,400 compounds were called active.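 The calls were made as follows: active = fitted curve reaches 30% CPE protection at or below the top valid dose, with every test run called active; inconclusive = test runs disagree, some active and some not; inactive = every test run inactive, including effects in the wrong direction.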 Some of the results follow. Results with a measured potency or affinity are listed apart.

Assay: antiviral rescue of DENV2-infected BHK-21 cells – cell-based, ATP luminescence, cherry-pick, dose response (AID 687031);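 also: 0% = infected DMSO wells and 100% = uninfected cell wells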
Conditions: BHK-21 DENV2 CPE protection, 5 d; at 19.5 µM (top of the series) unless noted

Structure (SMILES)	CPE protection (higher = active)
COCCNC(=O)C1(C)CCN(C(=O)Cc2ccc(OC)c(OC)c2)C1 (configuration not stated)	inactive: -24.1%
CCOC(=O)c1[nH]c(C)c(C(=O)OCC(=O)N2CC(=O)Nc3ccccc32)c1C	inactive: 7.13% [at 10 µM]
CN1C(=O)c2cc(NC(=O)NCc3ccccc3)ccc2OC[C@H]2O[C@H](CC(=O)NCC3CCCCC3)CC[C@H]21	inactive: -5.84% [at 10 µM]
CC(C)(C)OC(=O)NCc1ccc(CNC(=O)c2nc[nH]c2C(=O)N2CCc3ccccc3C2)cc1	inactive: 11.2%
COc1cc([C@H](Cc2ccccc2)NC(C)=O)oc(=O)c1	inactive: 3.82%
CC(C)(C)NC(=O)c1cccc(NC(=O)c2ccc3c(c2)C(=O)N(C(C)(C)C)C3=O)c1	inactive: 8.46%
NC(=O)c1cc(Cl)cn(-c2ccccc2)c1=O	inactive: 13.1%
CN(Cc1ccc(Cl)c(Cl)c1)C(=O)C1CC(=O)N(c2ccc3c(c2)OCCO3)C1 (configuration not stated)	inactive: 22.4%
CCn1cc(C(=O)NC(C)CCc2ccccc2)c(=O)c2cc(S(=O)(=O)N(C)C)ccc21 (configuration not stated)	inactive: 3.85%
CC(C)Oc1ccc(S(=O)(=O)N2CCOCC2)cc1NC(=O)Cc1ccsc1	inactive: 25.1%
CCCCOc1ccc(C(=O)N/N=C/c2ccc(OCCN3CCCCC3)c(OC)c2)cc1	inactive: -4.37%
CCOc1cc(CNCCN2CCOCC2)ccc1OCc1ccccc1Cl	inactive: 4.31%
Cc1ccc(S(=O)(=O)N2CC[C@@H]3[C@H](CO)Nc4ccc(-c5ccccc5F)cc4[C@@H]32)cc1	inactive: -34.1%
O=C(c1cccc(-c2cccc3nccn23)c1)N1CCOCC1	inactive: -4.39%
COc1ccc(NC(=O)N(C)C[C@@H]2Oc3ccc(NS(=O)(=O)c4c(C)noc4C)cc3C(=O)N([C@H](C)CO)C[C@@H]2C)cc1	inactive: -6.55% [at 21 µM]
CN1C(=O)c2cc(NC(=O)Cc3cccs3)ccc2OC[C@@H]2O[C@H](CC(=O)NCC3CCCCC3)CC[C@H]21	inactive: -6.86%
O=C(NN1C(=O)NC2(CCCCC2)C1=O)c1cc(F)cc(F)c1	inactive: -5.84%
Cc1cc(C)n2c(NC3CCCC3)c(-c3cccnc3)nc2n1	inactive: 7.61%
C[C@H](CO)N1C[C@H](C)[C@@H](CN(C)S(C)(=O)=O)Oc2ccc(NC(=O)Nc3ccccc3)cc2C1=O	inactive: -10.2%
CC(O)(c1cccc(F)c1)c1nc(/C=C/c2ccccc2)cs1 (configuration not stated)	inactive: -3.71%
COc1cccc(OC)c1Nc1nc(C)nc2c1nnn2Cc1ccccc1Cl	inactive: -19.1%

Molecules above that have a tert-butyl group:
Structure (SMILES)	CPE protection (higher = active)
CC(C)(C)OC(=O)NCc1ccc(CNC(=O)c2nc[nH]c2C(=O)N2CCc3ccccc3C2)cc1	inactive: 11.2%
CC(C)(C)NC(=O)c1cccc(NC(=O)c2ccc3c(c2)C(=O)N(C(C)(C)C)C3=O)c1	inactive: 8.46%

Remaining list, next part

Structure (SMILES)	CPE protection (higher = active)
O=C(C[C@H]1C[C@@H]2c3cc(NC(=O)CC4CC4)ccc3O[C@@H]2[C@H](CO)O1)NCc1ccccc1	inactive: -5.22%
O=C(Nc1ccc2nc3n(c(=O)c2c1)CCCC3)c1ccccc1F	inactive: -4.72%
Cc1ccc(S(=O)(=O)N2CCN(C(=O)COC(=O)Cc3ccc(Cl)cc3)CC2)c(C)c1	inactive: -8.53%
COc1ccc(COC(=O)C2=C(C)NC(=O)NC2c2ccc(F)cc2)cc1 (configuration not stated)	inactive: -0.484%
Cc1nc2c(OCCC3CCCCC3)cccn2c1N(C)C(=O)CCC1CCCC1	inactive: -6.23%
CCCCN1C(N)=NC[C@@H]1C(C)O (some centres not stated)	inactive: 11.2%
O=C(NCCc1ccccc1)c1ccccc1NC(=O)C1CCCCC1C(=O)O (configuration not stated)	inactive: 3.51%
CCCc1nc2c(C)cc(Br)cn2c1Cc1ccc(OC)cc1C	inactive: -12.5%
C[C@H](CO)N1C[C@H](C)[C@@H](CN(C)C(=O)Nc2ccc(C(F)(F)F)cc2)OCCCC[C@H](C)Oc2ccc(NC(=O)C3CCCCC3)cc2C1=O	inactive: -6.54%
O=C(O)C[C@H]1C[C@@H]2c3cc(NC(=O)Cc4ccncc4)ccc3O[C@@H]2[C@@H](CO)O1	inactive: 28.9% [at 21 µM]
CCCNC(=O)Nc1ccc2c(c1)C(=O)N(C)C[C@H](OC)[C@H](C)CN(C)[C@@H](C)CO2	inactive: -22.5%
COc1cc(CNc2nccn3ccnc23)cc(OC)c1	inactive: 9.75%
Cc1noc(C)c1S(=O)(=O)N(C)C[C@@H]1OCCCC[C@H](C)Oc2ccc(NC(=O)NC(C)C)cc2C(=O)N([C@H](C)CO)C[C@H]1C	inactive: -4.64% [at 21 µM]
COC(=O)c1cc2ccsc2n1Cc1ccccc1F	inactive: -9.53%
COc1ccc(S(=O)(=O)N[C@H]2CC[C@@H](CCNC(=O)CN3CCOCC3)O[C@H]2CO)cc1	inactive: 0.697%
CC(C)c1ccc(NC(=O)Nc2nc(C(N)c3ccccc3Cl)cs2)cc1 (configuration not stated)	inactive: -13.2%
CN(Cc1ccccc1)CC1CCCN(CCc2ccccc2F)C1 (configuration not stated)	inactive: 3.08%
CN(C)CC(=O)N1[C@H](CO)[C@@H](c2ccccc2)C12CN(C(=O)c1ccccc1)C2	inactive: -2.58%
CCCN1CCC(NC(=O)CC2C(=O)NCCN2Cc2cccc(OC)c2)CC1 (configuration not stated)	inactive: 7.2%
NS(=O)(=O)c1ccc(CCNC(=O)C2CCCN2C(=O)c2cccs2)cc1 (configuration not stated)	inactive: -11.5%
Cn1c(=O)n(C)c2cc(N3CCOCC3)c(NC(=O)c3ccc(F)cc3)cc21	inactive: 21.4%

Structure (SMILES)	CPE protection (higher = active)
COc1cccc(NC(=O)CN(C)C(=O)CCCc2nc3ccccc3s2)c1	inactive: 14.9%
Cc1ccc(S(=O)(=O)N2CCCNCC2)cc1	inactive: 6.68%
COc1cccc(C(NC(C)=O)c2nc(/C=C/c3ccccc3)cs2)c1 (configuration not stated)	inactive: -2.97%
COc1ccc2o/c(=N\O)c(C(=O)Nc3ccc(C)cc3)cc2c1	inactive: 21.5%
O=C(c1ccc(Cl)cc1)N1CCc2c([nH]c3ccccc23)C1C(F)(F)F (configuration not stated)	inactive: -6.34%
CCCCCNC(=O)c1[nH]c(C(F)(F)F)nc1-c1ccccc1	inactive: 20.9%
O=C([C@@H]1[C@@H](CO)[C@@H]2Cn3c(cccc3=O)[C@H]1N2C(=O)CC1CC1)N1CCCCC1	inactive: 3.41%
Cc1cc(=O)oc2cc(OCCSCCN3CCCC3)ccc12	inactive: -9.74%
CO[C@H]1CN(C)C(=O)c2cc(NC(=O)c3ccccc3F)ccc2OC[C@H](C)N(CC2CCOCC2)C[C@H]1C	inactive: -20.3%
Cc1ccc(NC(=O)c2ccc3c(c2)OCO3)cc1Cl	inactive: -1.6%
O=C(Cc1cn(Cc2ccccc2)c2ccccc12)Nc1ccc(Oc2cccnc2)cc1	inactive: -6.28%
Cc1cccc(C)c1-n1nnnc1C1(C)CCC(=O)N1Cc1cccs1 (configuration not stated)	inactive: -20.3%
CS(=O)(=O)N1[C@@H]2CNC[C@H]1C2c1ccc(-c2ccccc2)cc1 (some centres not stated)	inactive: 1.08%
Cc1cccc(Cl)c1OCCN1CCCC1	inactive: -1.01%
Cc1ccccc1S(=O)(=O)N1[C@H](C#N)[C@H](c2ccccc2)[C@@H]1CO	inactive: 7.31% [at 21 µM]
Cc1cccc(N(CC(=O)NC(C)(C)C)C(=O)CNC(=O)c2cccs2)c1C	inactive: -10.1%
Cc1ccc(S(=O)(=O)N(C)C)cc1NC(=O)COC(=O)C1CCCC1	inactive: -13.6%
CNc1nc(Oc2cccc(NC(C)=O)c2)c2sccc2n1	inactive: 6.08%
NC(=O)C1CCN(C(=O)C2(NC(=O)Nc3cccc(F)c3)CCCCC2)CC1	inactive: 11.9%
Cc1cc(O)c(C(C)C)cc1NC(=O)c1ccccc1Cl	inactive: -6.87%
COc1ccc(S(=O)(=O)Nc2cc3c4c(c2)CCN4C(=O)CC3)cc1	inactive: 14.6%

Structure (SMILES)	CPE protection (higher = active)
OC(COC(c1ccc(F)cc1)c1ccc(F)cc1)CN1CCCC1 (configuration not stated)	inactive: 2.8%
O=C(c1ccc(F)cc1)N1CCC(C(=O)N2CCCc3ccccc32)CC1	inactive: 18.1%
CCOC(=O)C1CCCN(c2c(N3CCOCC3)c(=O)c2=O)C1 (configuration not stated)	inactive: -3.97%
Cc1ccc(NC(=O)c2nc[nH]c2C(=O)N[C@@H](C)C(=O)OC(C)(C)C)cc1	inactive: 2.06%
C/C=C/c1ccc([C@H]2[C@@H](CO)N3CCCCN(S(=O)(=O)c4ccccc4)C[C@@H]23)cc1	inactive: -29.9%
C[C@H](CCC(=O)O)[C@H]1CC[C@H]2[C@@H]3CC[C@@H]4C[C@H](O)CC[C@]4(C)[C@H]3C[C@H](O)[C@]12C	inactive: -3.87%
COc1ccc([C@H]2C[C@@H](n3cc(C4CC4)nn3)[C@H](O)CN2Cc2cccs2)cc1	inactive: 0.924% [at 10 µM]
CCN(CC)C(=O)C1=C(C)N(CCCN2CCCC2=O)C(=O)C(CC(=O)NCC2CCCCC2)C1 (configuration not stated)	inactive: 15.6%
Clc1cccc(C2=NOC(c3nnc(-c4ccccc4)o3)C2)c1 (configuration not stated)	inactive: 5.72%
CCc1nc2ccc(C(=O)N(CC)CCN(C)C)cn2c1N(C)C(=O)c1cccc(OC)c1	inactive: -23.3%
Cc1cccc(N=[N+]([O-])c2cccc(C)n2)n1	inactive: -7.07%
N#C[C@@H]1[C@@H](c2ccc(-c3cccc(F)c3)cc2)[C@H](CO)N1c1nc(-c2ccccc2)cs1	inactive: -8.78%
CCCCCC(=O)NC1CCCCN(C)C1=O (configuration not stated)	inactive: 19.9%
COc1ccc(S(=O)(=O)N2CCCCCC2)cc1NC(=O)Cc1cccc(C(F)(F)F)c1	inactive: -4.8%
Nc1nc2ccccc2n1Cc1ccc(Cl)c(Cl)c1	inactive: -19.4%
Cc1ccc(SC[C@H](Cc2ccccc2)N2CC[C@@H](C)CCC2=O)cc1	inactive: 14.7%
Cc1cccc(CN2CCN(C(=O)c3cccc4ccccc34)CC2)c1	inactive: -3.17%
COc1ccc(CNC(=O)C2CC(c3ccc(C(F)(F)F)cc3)=NO2)cc1 (configuration not stated)	inactive: -25.2%
Cc1noc(C)c1NC(=O)Nc1ccc2c(c1)C(=O)N([C@@H](C)CO)C[C@H](C)[C@@H](CN(C)C(=O)CCCN(C)C)OCCCC[C@@H](C)O2	inactive: 15.7%
